US12729225B2, “Non-canonical SWI/SNF complex and uses thereof” (Dana-Farber Cancer Institute, Inc., priority 2018, dated 2026)

System: mSWI/SNF complexes
Test: mSWI/SNF complex purification with HA-tagged baits and mass spectrometry (peptide counts)
Set-up: species or system human
Conditions: 293_HA-BRD7: HA-BRD7 bait purification; for Total: total peptide count per co-purified protein; for Unique: unique peptide count per co-purified protein

Molecule | Total | Unique
TRAP1 (protein, UniProt Q12931 60-704, looked up) Heat shock protein 75 kDa, …: STQTAEDKEEPLHSIISSTESVQGSTSKHEFQAETKKLLDIVARSLYSEKEVFIRELISNASDALEKLRHKLVSDGQALPEMEIHLQTNAEKGTITIQDTGIGMTQEELVSNLGTIARSGSKAFLDALQNQAEASSKIIGQFGVGFYSAFMVADRVEVYSRSAAPGSLGYQWLSDGSGVFEIAEASGVRTGTKIIIHLKSDCKEFSSEARVRDVVTKYSNFVSFPLYLNGRRMNTLQAIWMMDPKDVREWQHEEFYRYVAQAHDKPRYTLHYKTDAPLNIRSIFYVPDMKPSMFDVSRELGSSVALYSRKVLIQTKATDILPKWLRFIRGVVDSEDIPLNLSRELLQESALIRKLRDVLQQRLIKFFIDQSKKDAEKYAKFFEDYGLFMREGIVTATEQEVKEDIAKLLRYESSALPSGQLTSLSEYASRMRAGTRNIYYLCAPNRHLAEHSPYYEAMKKKDTEVLFCFEQFDELTLLHLREFDKKKLISVETDIVVDHYKEEKFEDRSPAAECLSEKETEELMAWMRNVLGSRVTNVKVTLRLDTHPAMVTVLEMGAARHFLRMQQLAKTQEERAQLLQPTLEINPRHALIKKLNQLRASEPGLAQLLVDQIYENAMIAAGLVDDPRAMVGRLNELLVKALERH | 9 | 9
VANGL1 (protein, UniProt Q8TAA9 1-524, looked up) Vang-like protein 1: MDTESTYSGYSYYSSHSKKSHRQGERTRERHKSPRNKDGRGSEKSVTIQPPTGEPLLGNDSTRTEEVQDDNWGETTTAITGTSEHSISQEDIARISKDMEDSVGLDCKRYLGLTVASFLGLLVFLTPIAFILLPPILWRDELEPCGTICEGLFISMAFKLLILLIGTWALFFRKRRADMPRVFVFRALLLVLIFLFVVSYWLFYGVRILDSRDRNYQGIVQYAVSLVDALLFIHYLAIVLLELRQLQPMFTLQVVRSTDGESRFYSLGHLSIQRAALVVLENYYKDFTIYNPNLLTASKFRAAKHMAGLKVYNVDGPSNNATGQSRAMIAAAARRRDSSHNELYYEEAEHERRVKKRKARLVVAVEEAFIHIQRLQAEEQQKAPGEVMDPREAAQAIFPSMARALQKYLRITRQQNYHSMESILQHLAFCITNGMTPKAFLERYLSAGPTLQYDKDRWLSTQWRLVSDEAVTNGLRDGIVFVLKCLDFSLVVNVKKIPFIILSEEFIDPKSHKFVLRLQSETSV | 9 | 9
LMNB2 (protein, UniProt Q03252 1-617, looked up) Lamin-B2: MSPPSPGRRREQRRPRAAATMATPLPGRAGGPATPLSPTRLSRLQEKEELRELNDRLAHYIDRVRALELENDRLLLKISEKEEVTTREVSGIKALYESELADARRVLDETARERARLQIEIGKLRAELDEVNKSAKKREGELTVAQGRVKDLESLFHRSEVELAAALSDKRGLESDVAELRAQLAKAEDGHAVAKKQLEKETLMRVDLENRCQSLQEELDFRKSVFEEEVRETRRRHERRLVEVDSSRQQEYDFKMAQALEELRSQHDEQVRLYKLELEQTYQAKLDSAKLSSDQNDKAASAAREELKEARMRLESLSYQLSGLQKQASAAEDRIRELEEAMAGERDKFRKMLDAKEQEMTEMRDVMQQQLAEYQELLDVKLALDMEINAYRKLLEGEEERLKLSPSPSSRVTVSRATSSSSGSLSATGRLGRSKRKRLEVEEPLGSGPSVLGTGTGGSGGFHLAQQASASGSVSIEEIDLEGKFVQLKNNSDKDQSLGNWRIKRQVLEGEEIAYKFTPKYILRAGQMVTVWAAGAGVAHSPPSTLVWKGQSSWGTGESFRTVLVNADGEEVAMRTVKKSSVMRENENGEEEEEEAEFGEEDLFHQQGDPRTTSRGC | 11 | 8
C1QBP (protein, UniProt Q07021 74-282, looked up) Complement component 1 Q …: LHTDGDKAFVDFLSDEIKEERKIQKHKTLPKMSGGWELELNGTEAKLVRKVAGEKITVTFNINNSIPPTFDGEEEPSQGQKVEEQEPELTSTPNFVVEVIKNDDGKKALVLDCHYPEDEVGQEDEAESDIFSIREVSFQSTGESEWKDTNYTLNTDSLDWALYDHLMDFLADRGVDNTFADELVELSTALEHQEYITFLEDLKSFVKSQ | 11 | 9
MDH2 (protein, UniProt P40926 25-338, looked up) Malate dehydrogenase, …: AKVAVLGASGGIGQPLSLLLKNSPLVSRLTLYDIAHTPGVAADLSHIETKAAVKGYLGPEQLPDCLKGCDVVVIPAGVPRKPGMTRDDLFNTNATIVATLTAACAQHCPEAMICVIANPVNSTIPITAEVFKKHGVYNPNKIFGVTTLDIVRANTFVAELKGLDPARVNVPVIGGHAGKTIIPLISQCTPKVDFPQDQLTALTGRIQEAGTEVVKAKAGAGSATLSMAYAGARFVFSLVDAMNGKEGVVECSFVKSQETECTYFSTPLLLGKKGIEKNLGIGKVSSFEEKMISDAIPELKASIKKGEDFVKTLK | 10 | 9
HNRNPA2B1 (protein, UniProt P22626 1-353, looked up) Heterogeneous nuclear …: MEKTLETVPLERKKREKEQFRKLFIGGLSFETTEESLRNYYEQWGKLTDCVVMRDPASKRSRGFGFVTFSSMAEVDAAMAARPHSIDGRVVEPKRAVAREESGKPGAHVTVKKLFVGGIKEDTEEHHLRDYFEEYGKIDTIEIITDRQSGKKRGFGFVTFDDHDPVDKIVLQKYHTINGHNAEVRKALSRQEMQEVQSSRSGRGGNFGFGDSRGGGGNFGPGPGSNFRGGSDGYGSGRGFGDGYNGYGGGPGGGNFGGSPGYGGGRGGYGGGGPGYGNQGGGYGGGYDNYGGGNYGSGNYNDFGNYNQQPSNYGPMKSGNFGGSRNMGGPYGGGNYGPGGSGGSGGYGGRSRY | 12 | 9
DDOST (protein, UniProt P39656 43-456, looked up) Dolichyl-diphosphooligosacchar …: SGPRTLVLLDNLNVRETHSLFFRSLKDRGFELTFKTADDPSLSLIKYGEFLYDNLIIFSPSVEDFGGNINVETISAFIDGGGSVLVAASSDIGDPLRELGSECGIEFDEEKTAVIDHHNYDISDLGQHTLIVADTENLLKAPTIVGKSSLNPILFRGVGMVADPDNPLVLDILTGSSTSYSFFPDKPITQYPHAVGKNTLLIAGLQARNNARVIFSGSLDFFSDSFFNSAVQKAAPGSQRYSQTGNYELAVALSRWVFKEEGVLRVGPVSHHRVGETAPPNAYTVTDLVEYSIVIQQLSNGKWVPFDGDDIQLEFVRIDPFVRTFLKKKGGKYSVQFKLPDVYGVFQFKVDYNRLGYTHLYSSTQVSVRPLQHTQYERFIPSAYPYYASAFSMMLGLFIFSIVFLHMKEKEKSD | 10 | 8
HP1BP3 (protein, UniProt Q5SSJ5 2-553, looked up) Heterochromatin protein …: ATDTSQGELVHPKALPLIVGAQLIHADKLGEKVEDSTMPIRRTVNSTRETPPKSKLAEGEEEKPEPDISSEESVSTVEEQENETPPATSSEAEQPKGEPENEEKEENKSSEETKKDEKDQSKEKEKKVKKTIPSWATLSASQLARAQKQTPMASSPRPKMDAILTEAIKACFQKSGASVVAIRKYIIHKYPSLELERRGYLLKQALKRELNRGVIKQVKGKGASGSFVVVQKSRKTPQKSRNRKNRSSAVDPEPQVKLEDVLPLAFTRLCEPKEASYSLIRKYVSQYYPKLRVDIRPQLLKNALQRAVERGQLEQITGKGASGTFQLKKSGEKPLLGGSLMEYAILSAIAAMNEPKTCSTTALKKYVLENHPGTNSNYQMHLLKKTLQKCEKNGWMEQISGKGFSGTFQLCFPYYPSPGVLFPKKEPDDSRDEDEDEDESSEEDSEDEEPPPKRRLQKKTPAKSPGKAASVKQRGSKPAPKVSAAQRGKARPLPKKAPPKAKTPAKKTRPSSTVIKKPSGGSSKKPATSARKEVKLPGKGKSTMKKSFRVKK | 9 | 9
P4HA1 (protein, UniProt P13674 18-534, looked up) Prolyl 4-hydroxylase subunit …: HPGFFTSIGQMTDLIHTEKDLVTSLKDYIKAEEDKLEQIKKWAEKLDRLTSTATKDPEGFVGHPVNAFKLMKRLNTEWSELENLVLKDMSDGFISNLTIQRQYFPNDEDQVGAAKALLRLQDTYNLDTDTISKGNLPGVKHKSFLTAEDCFELGKVAYTEADYYHTELWMEQALRQLDEGEISTIDKVSVLDYLSYAVYQQGDLDKALLLTKKLLELDPEHQRANGNLKYFEYIMAKEKDVNKSASDDQSDQKTTPKKKGVAVDYLPERQKYEMLCRGEGIKMTPRRQKKLFCRYHDGNRNPKFILAPAKQEDEWDKPRIIRFHDIISDAEIEIVKDLAKPRLRRATISNPITGDLETVHYRISKSAWLSGYENPVVSRINMRIQDLTGLDVSTAEELQVANYGVGGQYEPHFDFARKDEPDAFKELGTGNRIATWLFYMSDVSAGGATVFPEVGASVWPKKGTAVFWYNLFASGEGDYSTRHAACPVLVGNKWVSNKWLHERGQEFRRPCTLSELE | 10 | 9
DHX8 (protein, UniProt Q14562 1-1220, looked up) ATP-dependent RNA helicase …: MAVAVAMAGALIGSEPGPAEELAKLEYLSLVSKVCTELDNHLGINDKDLAEFVISLAEKNTTFDTFKASLVKNGAEFTDSLISNLLRLIQTMRPPAKPSTSKDPVVKPKTEKEKLKELFPVLCQPDNPSVRTMLDEDDVKVAVDVLKELEALMPSAAGQEKQRDAEHRDRTKKKKRSRSRDRNRDRDRDRERNRDRDHKRRHRSRSRSRSRTRERNKVKSRYRSRSRSQSPPKDRKDRDKYGERNLDRWRDKHVDRPPPEEPTIGDIYNGKVTSIMQFGCFVQLEGLRKRWEGLVHISELRREGRVANVADVVSKGQRVKVKVLSFTGTKTSLSMKDVDQETGEDLNPNRRRNLVGETNEETSMRNPDRPTHLSLVSAPEVEDDSLERKRLTRISDPEKWEIKQMIAANVLSKEEFPDFDEETGILPKVDDEEDEDLEIELVEEEPPFLRGHTKQSMDMSPIKIVKNPDGSLSQAAMMQSALAKERRELKQAQREAEMDSIPMGLNKHWVDPLPDAEGRQIAANMRGIGMMPNDIPEWKKHAFGGNKASYGKKTQMSILEQRESLPIYKLKEQLVQAVHDNQILIVIGETGSGKTTQITQYLAEAGYTSRGKIGCTQPRRVAAMSVAKRVSEEFGCCLGQEVGYTIRFEDCTSPETVIKYMTDGMLLRECLIDPDLTQYAIIMLDEAHERTIHTDVLFGLLKKTVQKRQDMKLIVTSATLDAVKFSQYFYEAPIFTIPGRTYPVEILYTKEPETDYLDASLITVMQIHLTEPPGDILVFLTGQEEIDTACEILYERMKSLGPDVPELIILPVYSALPSEMQTRIFDPAPPGSRKVVIATNIAETSLTIDGIYYVVDPGFVKQKVYNSKTGIDQLVVTPISQAQAKQRAGRAGRTGPGKCYRLYTERAYRDEMLTTNVPEIQRTNLASTVLSLKAMGINDLLSFDFMDAPPMETLITAMEQLYTLGALDDEGLLTRLGRRMAEFPLEPMLCKMLIMSVHLGCSEEMLTIVSMLSVQNVFYRPKDKQALADQKKAKFHQTEGDHLTLLAVYNSWKNNKFSNPWCYENFIQARSLRRAQDIRKQMLGIMDRHKLDVVSCGKSTVRVQKAICSGFFRNAAKKDPQEGYRTLIDQQVVYIHPSSALFNRQPEWVVYHELVLTTKEYMREVTTIDPRWLVEFAPAFFKVSDPTKLSKQKKQQRLEPLYNRYEEPNAWRISRAFRRR | 10 | 10
